# Assay results published in the supplement of paper PMC8728848.
# This is one part of the list.
# B1: PX9937I-bfa-538-26-538 (Bacteroides fragilis) (protein)
# chain: DKLDLSPIDYYGSGSYWKTEAQATAYIDGIHKHLRDAAWQHTITFGELRGGRFITGASSDGMGVSNGDIILQNFDETHTGVSKFGDLFGRITNLNLFIARVTDATYLSDEMKNFYLGEVYGLRAFYYFDLYRIYGGVPLRLTADVVEGVIDPNKLYMARSTPKEVMTQIKSDLNKSMEYFGNMNDFDPYKRGKKVYWSKAATECLMGEVYLWTSKVTTGDDVANPADLTIAKTHLESVLNNYNLKMLDDFSQVFNAKNKANDEIIFAIRFLEGEATNSNGTFTYNVGTGSTKNRYQANGEVFGDALDIQNTGNQTYEYNKAVYQNFDDADTRKEATFIASYNKDGKTGELSLYGTHVRKNIGYVNAQGARVYCGDYIFYRLPWVYLTLAEIANMEGDNAAVAKYINLVRKRAYGNAWDETLYAYPETADFTTNELAILHEKDKEFIQEGQRWWDLRRMTLTKGGTPLVFCKEGSLLGDAPILNKSTEAHKLLWPIEKTMLNKDPALEQTPGYK
# Experiments:
# Test in all cases: glycan array binding signal (z-score within array); higher = stronger binding
# Conditions in all cases: glycan notation: IUPAC condensed, linker removed
# [1] = target: Neu5Ac(a2-3)Gal(b1-4)GlcNAc(b1-2)[Neu5Ac(a2-3)Gal(b1-4)GlcNAc(b1-4)]Man(a1-3)[GlcNAc(b1-4)][Neu5Ac(a2-3)Gal(b1-4)GlcNAc(b1-4)Man(a1-6)]Man(b1-4)GlcNAc(b1-4)GlcNAc
# Outline: (§1)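 The Consortium for Functional Glycomics database supplied 3228 glycan arrays, of which those lacking an available protein sequence were dropped. The binding signal, a within-array Z-score, was averaged across arrays of the same protein sequence and across linkers. Negative scores can be read as non-binding.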
# [2] = target: Neu5Ac(a2-3)Gal(b1-4)GlcNAc(b1-2)[Neu5Ac(a2-3)Gal(b1-4)GlcNAc(b1-6)]Man(a1-6)[Neu5Ac(a2-3)Gal(b1-4)GlcNAc(b1-2)Man(a1-3)]Man(b1-4)GlcNAc(b1-4)GlcNAc
# Outline: as §1
# [3] = target: Neu5Ac(a2-3)Gal(b1-4)GlcNAc(b1-2)[Neu5Ac(a2-3)Gal(b1-4)GlcNAc(b1-6)]Man(a1-6)[Neu5Ac(a2-3)Gal(b1-4)GlcNAc(b1-2)Man(a1-3)][GlcNAc(b1-4)]Man(b1-4)GlcNAc(b1-4)GlcNAc
# Outline: as §1
# [4] = target: Neu5Ac(a2-3)Gal(b1-4)GlcNAc(b1-3)Gal
# Outline: as §1
# [5] = target: Neu5Ac(a2-3)Gal(b1-4)GlcNAc(b1-3)Gal(b1-3)GlcNAc
# Outline: as §1
# [6] = target: Neu5Ac(a2-3)Gal(b1-4)GlcNAc(b1-3)Gal(b1-4)GlcNAc
# Outline: as §1
# [7] = target: Neu5Ac(a2-3)Gal(b1-4)GlcNAc(b1-3)Gal(b1-4)GlcNAc(b1-2)Man(a1-3)[Neu5Ac(a2-3)Gal(b1-4)GlcNAc(b1-3)Gal(b1-4)GlcNAc(b1-2)Man(a1-6)]Man(b1-4)GlcNAc(b1-4)GlcNAc
# Outline: as §1
# [8] = target: Neu5Ac(a2-3)Gal(b1-4)GlcNAc(b1-3)Gal(b1-4)GlcNAc(b1-3)Gal(b1-4)GlcNAc
# Outline: as §1
# [9] = target: Neu5Ac(a2-3)Gal(b1-4)GlcNAc(b1-3)Gal(b1-4)GlcNAc(b1-3)Gal(b1-4)GlcNAc(b1-2)Man(a1-3)[Neu5Ac(a2-3)Gal(b1-4)GlcNAc(b1-3)Gal(b1-4)GlcNAc(b1-3)Gal(b1-4)GlcNAc(b1-2)Man(a1-6)]GalNAc
# Outline: as §1
# [10] = target: Neu5Ac(a2-3)Gal(b1-4)GlcNAc(b1-3)Gal(b1-4)GlcNAc(b1-3)GalNAc
# Outline: as §1
# [11] = target: Neu5Ac(a2-3)Gal(b1-4)GlcNAc(b1-3)Gal(b1-4)GlcNAc(b1-3)[Neu5Ac(a2-3)Gal(b1-4)GlcNAc(b1-3)Gal(b1-4)GlcNAc(b1-6)]GalNAc
# Outline: as §1
# [12] = target: Neu5Ac(a2-3)Gal(b1-4)GlcNAc(b1-3)Gal(b1-4)GlcNAc(b1-6)[Gal(b1-3)]GalNAc
# Outline: as §1
# [13] = target: Neu5Ac(a2-3)Gal(b1-4)GlcNAc(b1-3)Gal(b1-4)[Fuc(a1-3)]GlcNAc
# Outline: as §1
# [14] = target: Neu5Ac(a2-3)Gal(b1-4)GlcNAc(b1-3)GalNAc
# Outline: as §1
# [15] = target: Neu5Ac(a2-3)Gal(b1-4)GlcNAc(b1-3)[Neu5Ac(a2-3)Gal(b1-4)GlcNAc(b1-6)]GalNAc
# Outline: as §1
# [16] = target: Neu5Ac(a2-3)Gal(b1-4)GlcNAc(b1-6)GalNAc
# Outline: as §1
# [17] = target: Neu5Ac(a2-3)Gal(b1-4)GlcNAc(b1-6)[Gal(b1-3)]GalNAc
# Outline: as §1
# [18] = target: Neu5Ac(a2-3)Gal(b1-4)GlcNAc(b1-6)[Neu5Ac(a2-3)Gal(b1-3)]GalNAc
# Outline: as §1
# [19] = target: Neu5Ac(a2-3)Gal(b1-4)GlcNAc6S
# Outline: as §1
# [20] = target: Neu5Ac(a2-3)Gal(b1-4)[Fuc(a1-3)]GlcNAc
# Outline: as §1
# [21] = target: Neu5Ac(a2-3)Gal(b1-4)[Fuc(a1-3)]GlcNAc(b1-2)Man
# Outline: as §1
# [22] = target: Neu5Ac(a2-3)Gal(b1-4)[Fuc(a1-3)]GlcNAc(b1-3)Gal
# Outline: as §1
# [23] = target: Neu5Ac(a2-3)Gal(b1-4)[Fuc(a1-3)]GlcNAc(b1-3)Gal(b1-4)GlcNAc
# Outline: as §1
# [24] = target: Neu5Ac(a2-3)Gal(b1-4)[Fuc(a1-3)]GlcNAc(b1-3)Gal(b1-4)[Fuc(a1-3)]GlcNAc(b1-3)Gal(b1-4)[Fuc(a1-3)]GlcNAc
# Outline: as §1
# [25] = target: Neu5Ac(a2-3)Gal(b1-4)[Fuc(a1-3)]GlcNAc(b1-3)GalNAc
# Outline: as §1
# [26] = target: Neu5Ac(a2-3)Gal(b1-4)[Fuc(a1-3)]GlcNAc(b1-6)[Gal(b1-3)]GalNAc
# Outline: as §1
# [27] = target: Neu5Ac(a2-3)Gal(b1-4)[Fuc(a1-3)]GlcNAc(b1-6)[Neu5Ac(a2-3)Gal(b1-3)]GalNAc
# Outline: as §1
# [28] = target: Neu5Ac(a2-3)Gal(b1-4)[Fuc(a1-3)]GlcNAc6S
# Outline: as §1
# [29] = target: Neu5Ac(a2-3)Gal6S(b1-4)GlcNAc
# Outline: as §1
# [30] = target: Neu5Ac(a2-3)Gal6S(b1-4)[Fuc(a1-3)]GlcNAc
# Outline: as §1
# Neu5Ac(a2-3)GalNAc = target: Neu5Ac(a2-3)GalNAc
# Outline: as §1
# [31] = target: Neu5Ac(a2-3)GalNAc(b1-4)GlcNAc
# Outline: as §1
# [32] = target: Neu5Ac(a2-3)[GalNAc(b1-4)]Gal(b1-4)Glc
# Outline: as §1
# [33] = target: Neu5Ac(a2-3)[GalNAc(b1-4)]Gal(b1-4)GlcNAc
# Outline: as §1
# [34] = target: Neu5Ac(a2-3)[GalNAc(b1-4)]Gal(b1-4)GlcNAc(b1-3)GalNAc
# Outline: as §1
# [35] = target: Neu5Ac(a2-3)[Neu5Ac(a2-6)]GalNAc
# Outline: as §1
# Neu5Ac(a2-6)Gal = target: Neu5Ac(a2-6)Gal
# Outline: as §1
binder,measurement,setting,value
B1,glycan array binding signal (z-score),[1],0.172
same,glycan array binding signal (z-score),[2],-0.053
same,glycan array binding signal (z-score),[3],-0.956
same,glycan array binding signal (z-score),[4],-0.697
same,glycan array binding signal (z-score),[5],-0.856
same,glycan array binding signal (z-score),[6],-0.304
same,glycan array binding signal (z-score),[7],-0.246
same,glycan array binding signal (z-score),[8],1.3
same,glycan array binding signal (z-score),[9],1.29
same,glycan array binding signal (z-score),[10],0.409
same,glycan array binding signal (z-score),[11],-0.013
same,glycan array binding signal (z-score),[12],-0.608
same,glycan array binding signal (z-score),[13],-0.193
same,glycan array binding signal (z-score),[14],-0.275
same,glycan array binding signal (z-score),[15],-1.13
same,glycan array binding signal (z-score),[16],-0.335
same,glycan array binding signal (z-score),[17],0.676
same,glycan array binding signal (z-score),[18],-0.395
same,glycan array binding signal (z-score),[19],0.675
same,glycan array binding signal (z-score),[20],-0.564
same,glycan array binding signal (z-score),[21],0.469
same,glycan array binding signal (z-score),[22],-0.284
same,glycan array binding signal (z-score),[23],1.95
same,glycan array binding signal (z-score),[24],0.037
same,glycan array binding signal (z-score),[25],-0.002
same,glycan array binding signal (z-score),[26],1.12
same,glycan array binding signal (z-score),[27],0.372
same,glycan array binding signal (z-score),[28],-0.329
same,glycan array binding signal (z-score),[29],0.352
same,glycan array binding signal (z-score),[30],-1.35
same,glycan array binding signal (z-score),Neu5Ac(a2-3)GalNAc,-0.079
same,glycan array binding signal (z-score),[31],-0.41
same,glycan array binding signal (z-score),[32],0.204
same,glycan array binding signal (z-score),[33],-0.36
same,glycan array binding signal (z-score),[34],-0.491
same,glycan array binding signal (z-score),[35],-0.691
same,glycan array binding signal (z-score),Neu5Ac(a2-6)Gal,0.948

# An excerpt of these results, with bars between the fields:
binder | measurement | setting | value
B1 | glycan array binding signal (z-score) | [27] | 0.372
same | glycan array binding signal (z-score) | [28] | -0.329
